The test concerns the target YfeA-His10 (Yersinia pestis substrate-binding protein YfeA) (Yersinia pestis) (UniProt Q56952). The test is described as follows: SEC; both purified. In general terms: Size exclusion chromatography separates by hydrodynamic size, large species first.

Sequences of proteins named here, by UniProt entry; tags and fusion partners are left off. Residues count along the entry.
UniProt Q56952, residues 32-311: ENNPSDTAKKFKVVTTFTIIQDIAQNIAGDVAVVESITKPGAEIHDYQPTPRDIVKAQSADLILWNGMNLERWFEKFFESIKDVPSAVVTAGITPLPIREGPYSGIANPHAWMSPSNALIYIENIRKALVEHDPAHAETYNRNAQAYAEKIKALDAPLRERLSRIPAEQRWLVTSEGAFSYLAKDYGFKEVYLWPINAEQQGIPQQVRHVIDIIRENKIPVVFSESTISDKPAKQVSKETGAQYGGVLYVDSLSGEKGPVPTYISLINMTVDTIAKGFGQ

No constants are given. Whether binding was seen depends on the method and setting.

For “YfeA-His10 (Yersinia pestis substrate-binding protein YfeA) (from UniProt Q56952)”, the binding entry is listed as “no binding (tested: 5 mg ml-1 YfeA)”.

These data come from article PMC8411934.
